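The test systems are human melanoma cell lines, treated with a pair of drugs for 72 h and then stained and imaged. Values are the number of DAPI-stained nuclei as a percentage of the DMSO control: 100 is no effect, lower means fewer cells. Every drug was used at one fixed concentration, the lower of two screened (a fifth of the higher). These are primary screening values without error estimates.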 Only some of the drugs and lines screened are listed, without regard to their results. A dash means that no value is listed here.

Drugs:
nilutamide (1 µM): CC1(C)NC(=O)N(c2ccc([N+](=O)[O-])c(C(F)(F)F)c2)C1=O
sorafenib (0.4 µM): CNC(=O)c1cc(Oc2ccc(NC(=O)Nc3ccc(Cl)c(C(F)(F)F)c3)cc2)ccn1
midostaurin (0.08 µM): CO[C@@H]1[C@H](N(C)C(=O)c2ccccc2)C[C@H]2O[C@]1(C)n1c3ccccc3c3c4c(c5c6ccccc6n2c5c31)C(=O)NC4
FK866 (0.01 µM): O=C(/C=C/c1cccnc1)NCCCCC1CCN(C(=O)c2ccccc2)CC1
CHIR-265 (0.08 µM): Cn1c(Nc2ccc(C(F)(F)F)cc2)nc2cc(Oc3ccnc(-c4ncc(C(F)(F)F)[nH]4)c3)ccc21
BI-78D3 (0.2 µM): O=c1[nH]nc(Sc2ncc([N+](=O)[O-])s2)n1-c1ccc2c(c1)OCCO2
PF-04217903 (1 µM): OCCn1cc(-c2cnc3nnn(Cc4ccc5ncccc5c4)c3n2)cn1
OSU-03012 (1 µM): NCC(=O)Nc1ccc(-n2nc(C(F)(F)F)cc2-c2ccc3c(ccc4ccccc43)c2)cc1

Pair,A101D,A2058,A375,C32,COLO 792
nilutamide + PF-04217903,100,100,109,92.3,-
FK866 + midostaurin,68.3,92.1,78.6,75.5,-
PF-04217903 + sorafenib,103,92.6,88.0,90.9,-
midostaurin + BI-78D3,86.3,88.7,118,96.7,-
PF-04217903 + CHIR-265,53.9,92.4,73.2,86.9,-
OSU-03012 + BI-78D3,104,98.2,16.4,108,-
midostaurin + sorafenib,91.0,70.8,94.1,90.7,-
midostaurin + OSU-03012,83.9,89.8,16.9,82.6,-
OSU-03012 + nilutamide,101,92.7,17.5,118,-
sorafenib + CHIR-265,58.0,84.3,76.0,79.3,77.6
nilutamide + sorafenib,98.8,102,83.4,88.6,-
nilutamide + BI-78D3,103,108,77.6,93.2,-
FK866 + nilutamide,94.8,111,115,105,-
FK866 + PF-04217903,91.0,100,84.6,111,-
nilutamide + CHIR-265,50.4,74.3,78.9,87.5,-
OSU-03012 + sorafenib,98.1,110,13.3,104,-
midostaurin + PF-04217903,110,99.1,121,105,-
sorafenib + BI-78D3,94.5,101,109,103,-
midostaurin + CHIR-265,55.6,59.4,47.8,79.7,-
OSU-03012 + FK866,84.7,96.7,17.3,94.2,-
PF-04217903 + BI-78D3,103,88.8,104,88.3,-

Repeated from the top, 2 entries:

| Pair | A101D | A2058 | A375 | C32 | COLO 792 |
|---|---|---|---|---|---|
| nilutamide + PF-04217903 | 100 | 100 | 109 | 92.3 | - |
| FK866 + midostaurin | 68.3 | 92.1 | 78.6 | 75.5 | - |

From a melanoma drug combination screen (doi:10.1371/journal.pone.0140310); values rounded.